The list shows a part of the results.
What was measured:
Test in all cases: log2 fold change, soluble protein after heating vs DMSO (PISA); higher = thermal stabilisation; K562 lysate, 10 uM; active = over 0.2 and 3.5 SD of the protein, either way, in both replicates (recomputed)
lapatinib = compound: CS(=O)(=O)CCNCc1ccc(-c2ccc3ncnc(Nc4ccc(OCc5cccc(F)c5)c(Cl)c4)c3c2)o1 [lapatinib]
How it was run: (§1)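 A 30 min treatment with 10 μM compound was applied to crude K562 extract at 1 mg/mL protein in PBS pH 7.4 with 1 mM MgCl2. Heating for 3 min spanned 48°C-58°C, after which aliquots were pooled, adjusted to 0.5% NP-40 at 4°C and spun at 21,000xg for 90 min. TMTpro 16plex LC-MS/MS of the supernatant, with channel sums equalised, gave values recorded as log-two fold change in thermal stability against solvent controls, from duplicates.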

Chains of the proteins cited; added tags and fusions are not shown. Lines headed by an entry give the natural chain unless they say otherwise; changes in a name come on top.
UniProt Q8N183: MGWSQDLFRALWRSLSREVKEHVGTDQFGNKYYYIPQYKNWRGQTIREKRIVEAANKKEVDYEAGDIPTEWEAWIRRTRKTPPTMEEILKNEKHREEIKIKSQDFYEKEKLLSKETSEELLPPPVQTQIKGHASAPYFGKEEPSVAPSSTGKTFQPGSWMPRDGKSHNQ
UniProt P51956: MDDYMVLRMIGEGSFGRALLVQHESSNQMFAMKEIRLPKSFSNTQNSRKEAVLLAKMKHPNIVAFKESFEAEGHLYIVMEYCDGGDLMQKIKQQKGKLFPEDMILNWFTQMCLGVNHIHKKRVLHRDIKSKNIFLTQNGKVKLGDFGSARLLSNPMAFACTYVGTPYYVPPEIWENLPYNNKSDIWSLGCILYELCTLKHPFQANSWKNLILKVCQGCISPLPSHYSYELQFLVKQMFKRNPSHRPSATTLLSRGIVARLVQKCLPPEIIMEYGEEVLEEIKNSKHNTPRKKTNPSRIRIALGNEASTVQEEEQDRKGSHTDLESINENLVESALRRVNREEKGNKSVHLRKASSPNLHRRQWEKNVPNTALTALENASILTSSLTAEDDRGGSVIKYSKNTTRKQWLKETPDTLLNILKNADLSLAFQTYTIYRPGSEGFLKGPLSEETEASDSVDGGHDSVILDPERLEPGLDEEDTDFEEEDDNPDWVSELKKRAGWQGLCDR
UniProt Q9UMX5: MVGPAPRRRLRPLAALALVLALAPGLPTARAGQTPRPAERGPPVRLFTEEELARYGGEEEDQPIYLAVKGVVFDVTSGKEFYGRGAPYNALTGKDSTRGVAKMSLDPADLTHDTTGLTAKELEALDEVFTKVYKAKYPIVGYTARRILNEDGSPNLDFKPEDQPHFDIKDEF
UniProt Q9Y221: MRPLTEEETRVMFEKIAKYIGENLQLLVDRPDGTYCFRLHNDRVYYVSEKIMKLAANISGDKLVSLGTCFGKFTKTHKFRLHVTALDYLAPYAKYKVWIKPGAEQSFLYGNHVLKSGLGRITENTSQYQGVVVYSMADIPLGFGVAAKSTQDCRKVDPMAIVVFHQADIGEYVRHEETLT
UniProt O95644: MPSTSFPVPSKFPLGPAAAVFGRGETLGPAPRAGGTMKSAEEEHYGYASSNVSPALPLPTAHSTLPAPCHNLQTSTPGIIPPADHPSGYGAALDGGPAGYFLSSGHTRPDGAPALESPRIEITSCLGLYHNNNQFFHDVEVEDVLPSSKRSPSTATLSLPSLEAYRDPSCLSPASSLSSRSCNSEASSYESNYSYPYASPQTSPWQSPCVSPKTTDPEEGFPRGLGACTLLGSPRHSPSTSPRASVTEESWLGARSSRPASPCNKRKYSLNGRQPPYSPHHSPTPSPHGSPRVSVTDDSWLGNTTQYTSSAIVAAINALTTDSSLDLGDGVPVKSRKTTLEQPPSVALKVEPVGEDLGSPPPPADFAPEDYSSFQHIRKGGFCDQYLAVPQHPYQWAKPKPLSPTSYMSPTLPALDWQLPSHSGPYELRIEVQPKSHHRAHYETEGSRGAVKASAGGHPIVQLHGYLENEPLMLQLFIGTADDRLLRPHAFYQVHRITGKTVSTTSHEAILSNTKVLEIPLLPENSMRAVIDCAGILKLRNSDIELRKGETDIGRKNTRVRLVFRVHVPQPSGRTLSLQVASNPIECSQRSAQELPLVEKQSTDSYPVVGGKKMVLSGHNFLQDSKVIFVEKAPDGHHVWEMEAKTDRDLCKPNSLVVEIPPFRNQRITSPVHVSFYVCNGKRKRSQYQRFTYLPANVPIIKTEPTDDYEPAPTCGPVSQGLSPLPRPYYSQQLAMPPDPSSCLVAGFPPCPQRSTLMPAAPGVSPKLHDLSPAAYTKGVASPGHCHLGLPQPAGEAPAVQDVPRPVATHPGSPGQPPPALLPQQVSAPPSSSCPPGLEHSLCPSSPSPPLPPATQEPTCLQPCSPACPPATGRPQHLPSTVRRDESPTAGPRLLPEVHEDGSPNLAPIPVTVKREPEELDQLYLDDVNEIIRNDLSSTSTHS
UniProt Q8N8Q9: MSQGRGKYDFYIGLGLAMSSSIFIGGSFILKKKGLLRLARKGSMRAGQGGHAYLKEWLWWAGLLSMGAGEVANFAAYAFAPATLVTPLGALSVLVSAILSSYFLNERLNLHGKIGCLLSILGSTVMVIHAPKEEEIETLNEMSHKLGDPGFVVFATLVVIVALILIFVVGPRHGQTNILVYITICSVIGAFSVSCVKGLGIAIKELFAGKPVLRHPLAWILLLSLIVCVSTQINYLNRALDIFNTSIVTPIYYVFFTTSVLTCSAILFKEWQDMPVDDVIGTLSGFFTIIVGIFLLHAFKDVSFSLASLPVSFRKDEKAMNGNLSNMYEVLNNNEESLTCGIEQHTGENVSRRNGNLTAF
UniProt O60524: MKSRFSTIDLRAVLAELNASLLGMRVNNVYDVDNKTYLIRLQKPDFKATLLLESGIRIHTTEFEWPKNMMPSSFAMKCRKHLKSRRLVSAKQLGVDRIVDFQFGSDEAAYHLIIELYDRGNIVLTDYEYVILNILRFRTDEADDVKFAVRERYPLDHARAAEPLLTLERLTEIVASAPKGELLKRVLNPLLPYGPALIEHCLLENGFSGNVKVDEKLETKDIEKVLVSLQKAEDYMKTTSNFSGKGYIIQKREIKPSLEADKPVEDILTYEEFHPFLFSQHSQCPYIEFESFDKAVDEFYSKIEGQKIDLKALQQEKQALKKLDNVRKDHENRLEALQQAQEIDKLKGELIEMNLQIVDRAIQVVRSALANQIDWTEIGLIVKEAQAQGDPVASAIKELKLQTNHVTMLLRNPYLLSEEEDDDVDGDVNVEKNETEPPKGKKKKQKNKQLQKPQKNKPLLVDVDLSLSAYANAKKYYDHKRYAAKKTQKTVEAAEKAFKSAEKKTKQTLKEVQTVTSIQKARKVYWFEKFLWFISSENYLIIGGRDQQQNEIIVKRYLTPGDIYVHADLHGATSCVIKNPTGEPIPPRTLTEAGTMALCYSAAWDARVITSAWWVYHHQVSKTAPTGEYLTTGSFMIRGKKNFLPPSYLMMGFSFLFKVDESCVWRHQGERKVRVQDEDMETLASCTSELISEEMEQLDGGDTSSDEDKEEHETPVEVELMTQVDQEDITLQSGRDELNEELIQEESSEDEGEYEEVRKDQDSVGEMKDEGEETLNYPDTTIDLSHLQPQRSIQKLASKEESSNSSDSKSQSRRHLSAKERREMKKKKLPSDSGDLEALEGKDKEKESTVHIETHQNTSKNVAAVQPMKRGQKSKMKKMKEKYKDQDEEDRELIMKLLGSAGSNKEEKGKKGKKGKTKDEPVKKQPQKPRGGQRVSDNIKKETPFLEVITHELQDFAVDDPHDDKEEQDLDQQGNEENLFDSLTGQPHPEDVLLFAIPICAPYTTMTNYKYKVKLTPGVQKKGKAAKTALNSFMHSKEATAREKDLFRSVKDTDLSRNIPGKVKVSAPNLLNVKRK
UniProt Q86Y39, whole entry, looked up: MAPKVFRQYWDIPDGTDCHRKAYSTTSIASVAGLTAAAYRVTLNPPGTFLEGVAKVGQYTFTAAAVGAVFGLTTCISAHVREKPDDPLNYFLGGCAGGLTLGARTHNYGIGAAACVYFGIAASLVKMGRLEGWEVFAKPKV
UniProt O95139, whole entry, looked up: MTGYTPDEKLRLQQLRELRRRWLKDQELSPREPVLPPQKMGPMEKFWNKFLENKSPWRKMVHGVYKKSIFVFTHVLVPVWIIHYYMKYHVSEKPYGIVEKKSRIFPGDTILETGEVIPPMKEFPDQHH
UniProt Q9NPE2: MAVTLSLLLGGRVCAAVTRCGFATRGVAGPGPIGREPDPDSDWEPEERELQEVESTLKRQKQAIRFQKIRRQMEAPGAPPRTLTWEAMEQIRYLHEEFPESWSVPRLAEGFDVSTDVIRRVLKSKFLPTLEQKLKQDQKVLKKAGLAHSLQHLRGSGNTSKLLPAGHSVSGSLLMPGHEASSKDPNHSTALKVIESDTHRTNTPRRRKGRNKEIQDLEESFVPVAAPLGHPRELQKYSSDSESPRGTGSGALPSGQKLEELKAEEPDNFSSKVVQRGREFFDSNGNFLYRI
UniProt O43181, whole entry, looked up: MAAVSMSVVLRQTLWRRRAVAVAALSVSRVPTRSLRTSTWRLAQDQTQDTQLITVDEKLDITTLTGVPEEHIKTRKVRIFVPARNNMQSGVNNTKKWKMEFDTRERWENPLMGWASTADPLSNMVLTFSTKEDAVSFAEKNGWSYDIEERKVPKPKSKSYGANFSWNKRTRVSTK
UniProt Q96IV0: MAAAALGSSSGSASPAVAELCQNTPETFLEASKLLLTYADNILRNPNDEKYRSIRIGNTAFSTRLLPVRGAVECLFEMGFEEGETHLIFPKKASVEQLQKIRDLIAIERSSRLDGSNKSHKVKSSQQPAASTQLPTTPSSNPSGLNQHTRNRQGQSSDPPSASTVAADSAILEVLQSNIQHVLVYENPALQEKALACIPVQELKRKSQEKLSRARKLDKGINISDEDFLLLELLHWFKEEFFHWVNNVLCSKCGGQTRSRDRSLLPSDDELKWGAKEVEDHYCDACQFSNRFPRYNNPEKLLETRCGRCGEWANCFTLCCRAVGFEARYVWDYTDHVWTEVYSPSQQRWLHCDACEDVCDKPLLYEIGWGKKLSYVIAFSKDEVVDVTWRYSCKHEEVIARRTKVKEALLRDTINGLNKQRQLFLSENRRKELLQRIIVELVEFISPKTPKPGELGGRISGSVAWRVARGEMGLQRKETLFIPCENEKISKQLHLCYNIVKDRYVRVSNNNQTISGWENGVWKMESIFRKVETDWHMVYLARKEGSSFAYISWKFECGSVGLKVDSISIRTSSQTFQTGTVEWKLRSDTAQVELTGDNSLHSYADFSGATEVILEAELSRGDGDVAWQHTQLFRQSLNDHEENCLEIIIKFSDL
UniProt Q330K2: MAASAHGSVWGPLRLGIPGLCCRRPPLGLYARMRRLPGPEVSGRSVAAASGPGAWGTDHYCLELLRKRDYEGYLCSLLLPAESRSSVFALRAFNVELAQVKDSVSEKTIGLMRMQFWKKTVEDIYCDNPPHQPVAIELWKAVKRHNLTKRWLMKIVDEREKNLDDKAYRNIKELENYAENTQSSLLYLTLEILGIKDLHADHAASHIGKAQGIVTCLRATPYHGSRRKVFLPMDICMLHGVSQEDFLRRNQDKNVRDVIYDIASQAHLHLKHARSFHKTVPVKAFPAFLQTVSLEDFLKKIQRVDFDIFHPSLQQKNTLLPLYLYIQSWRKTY
UniProt Q15653: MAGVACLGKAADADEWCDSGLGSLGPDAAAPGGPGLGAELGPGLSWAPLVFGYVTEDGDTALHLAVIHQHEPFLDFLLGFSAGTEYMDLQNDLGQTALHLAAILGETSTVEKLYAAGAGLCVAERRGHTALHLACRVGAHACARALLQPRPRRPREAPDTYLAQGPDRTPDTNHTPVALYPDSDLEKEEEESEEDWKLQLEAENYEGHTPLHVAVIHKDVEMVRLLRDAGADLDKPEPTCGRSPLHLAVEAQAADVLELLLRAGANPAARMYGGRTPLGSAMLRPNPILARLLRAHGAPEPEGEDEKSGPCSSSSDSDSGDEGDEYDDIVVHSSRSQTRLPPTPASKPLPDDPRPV
UniProt P25208: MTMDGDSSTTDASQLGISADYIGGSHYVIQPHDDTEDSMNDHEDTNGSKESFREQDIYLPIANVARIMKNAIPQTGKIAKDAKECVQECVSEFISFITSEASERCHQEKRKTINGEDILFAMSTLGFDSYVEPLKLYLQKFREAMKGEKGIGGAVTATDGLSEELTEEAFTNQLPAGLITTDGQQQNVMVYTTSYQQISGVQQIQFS
UniProt O75380, whole entry, looked up: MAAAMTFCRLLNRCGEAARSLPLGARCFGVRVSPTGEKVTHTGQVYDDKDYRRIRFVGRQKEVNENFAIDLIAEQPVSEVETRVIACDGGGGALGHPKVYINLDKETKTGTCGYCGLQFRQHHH

pictilisib = compound: CS(=O)(=O)N1CCN(Cc2cc3nc(-c4cccc5[nH]ncc45)nc(N4CCOCC4)c3s2)CC1 [pictilisib]
How it was run: as §1

crizotinib = compound: C[C@@H](Oc1cc(-c2cnn(C3CCNCC3)c2)cnc1N)c1c(Cl)ccc(F)c1Cl [crizotinib]
How it was run: as §1

[1] = compound: C[C@H](C1=CC=C(C=C1)C(=O)NC2=C3C=CNC3=NC=C2)N
How it was run: as §1

duvelisib = compound: C[C@H](Nc1ncnc2nc[nH]c12)c1cc2cccc(Cl)c2c(=O)n1-c1ccccc1 [duvelisib]
How it was run: as §1

gandotinib = compound: Cc1cc(Nc2cc(CN3CCOCC3)c3nc(C)c(Cc4ccc(Cl)cc4F)n3n2)n[nH]1 [gandotinib]
How it was run: as §1

tozasertib = compound: Cc1cc(Nc2cc(N3CCN(C)CC3)nc(Sc3ccc(NC(=O)C4CC4)cc3)n2)n[nH]1 [tozasertib]
How it was run: as §1

doramapimod = compound: Cc1ccc(-n2nc(C(C)(C)C)cc2NC(=O)Nc2ccc(OCCN3CCOCC3)c3ccccc23)cc1 [doramapimod]
How it was run: as §1

bafetinib = compound: Cc1ccc(NC(=O)c2ccc(CN3CC[C@H](N(C)C)C3)c(C(F)(F)F)c2)cc1Nc1nccc(-c2cncnc2)n1 [bafetinib]
How it was run: as §1

[2] = compound: Cc1cccc(CC(=O)N2CCc3c2ccc(-c2cn(C)c4ncnc(N)c24)c3F)n1
How it was run: as §1

nilotinib = compound: Cc1cn(-c2cc(NC(=O)c3ccc(C)c(Nc4nccc(-c5cccnc5)n4)c3)cc(C(F)(F)F)c2)cn1 [nilotinib]
How it was run: as §1

[3] = compound: Cc1nc(Nc2n[nH]c3c2CN(C(=O)N[C@H](CN(C)C)c2ccccc2)C3(C)C)c2sccc2n1
How it was run: as §1

dasatinib = compound: Cc1nc(Nc2ncc(C(=O)Nc3c(C)cccc3Cl)s2)cc(N2CCN(CCO)CC2)n1 [dasatinib]
How it was run: as §1

[4] = compound: Cc1ncc(-c2ccnc(Nc3ccc(S(C)(=O)=O)cc3)n2)n1C(C)C
How it was run: as §1

[5] = compound: Cn1cc(-c2ccc3c(c2)CCN3C(=O)Cc2cccc(C(F)(F)F)c2)c2c(N)ncnc21
How it was run: as §1

quisinostat = compound: Cn1cc(CNCC2CCN(c3ncc(C(=O)NO)cn3)CC2)c2ccccc21 [quisinostat]
How it was run: as §1

tipifarnib = compound: Cn1cncc1[C@@](N)(c1ccc(Cl)cc1)c1ccc2c(c1)c(-c1cccc(Cl)c1)cc(=O)n2C [tipifarnib]
How it was run: as §1

[6] = compound: NC(=O)Nc1cc(-c2cccc(F)c2)sc1C(=O)N[C@H]1CCCNC1
How it was run: as §1

[7] = compound: NC(=O)c1cnc(N[C@@H]2CCCC[C@@H]2N)nc1Nc1cccc(-n2nccn2)c1
How it was run: as §1

[8] = compound: NC1(c2ccc(-c3nc4ccn5c(=O)[nH]nc5c4cc3-c3ccccc3)cc2)CCC1
How it was run: as §1

Target	log2 fold change (lapatinib)	log2 fold change (pictilisib)	log2 fold change (crizotinib)	log2 fold change [1]	log2 fold change (duvelisib)	log2 fold change (gandotinib)	log2 fold change (tozasertib)	log2 fold change (doramapimod)	log2 fold change (bafetinib)	log2 fold change [2]	log2 fold change (nilotinib)	log2 fold change [3]	log2 fold change (dasatinib)	log2 fold change [4]	log2 fold change [5]	log2 fold change (quisinostat)	log2 fold change (tipifarnib)	log2 fold change [6]	log2 fold change [7]	log2 fold change [8]
NDUFAF2 (UniProt Q8N183)	inactive: -0.038	inactive: -0.039	inactive: 0.029	inactive: -0.161	inactive: -0.046	inactive: 0.117	inactive: 0.008	inactive: 0.029	inactive: -0.035	inactive: 0.106	inactive: 0.011	inactive: 0.016	inactive: -0.017	inactive: -0.014	inactive: 0.008	inactive: -0.01	inactive: -0.099	inactive: -0.011	inactive: 0.032	inactive: -0.002
NEK3 (UniProt P51956)	inactive: -0.014	inactive: -0.048	inactive: -0.021	inactive: 0.012	inactive: 0.004	inactive: 0.113	inactive: 0.051	inactive: -0.014	inactive: 0.076	inactive: 0.002	inactive: -0.093	inactive: 0.014	inactive: -0.003	inactive: 0.023	inactive: -0.048	inactive: -0.073	inactive: 0.007	inactive: 0.015	inactive: -0.094	inactive: -0.056
NENF (UniProt Q9UMX5)	inactive: -0.028	inactive: -0.001	inactive: 0.026	inactive: 0.046	inactive: 0.05	inactive: -0.046	inactive: 0.004	inactive: 0.011	inactive: 0.03	inactive: -0.034	inactive: -0.051	inactive: 0.032	inactive: -0.001	inactive: -0.023	inactive: -0.036	inactive: -0.078	inactive: 0.001	inactive: -0.007	inactive: -0.013	inactive: 0.011
NIP7 (UniProt Q9Y221)	inactive: -0.03	inactive: 0.016	inactive: -0.008	inactive: -0.073	inactive: 0.003	inactive: 0.003	inactive: -0.042	inactive: -0.005	inactive: -0.029	inactive: 0.023	inactive: 0.024	inactive: 0	inactive: 0.051	inactive: 0.002	inactive: -0.006	inactive: 0.026	inactive: -0.013	inactive: 0.021	inactive: -0.006	inactive: 0.003
NFATC1 (UniProt O95644)	inactive: -0.003	inactive: -0.088	inactive: -0.111	inactive: -0.136	inactive: 0.007	inactive: 0.132	inactive: -0.002	inactive: 0.017	inactive: -0.043	inactive: 0.179	inactive: -0.048	inactive: -0.055	inactive: 0.014	inactive: 0.014	inactive: 0.037	inactive: -0.097	inactive: 0.006	inactive: 0.042	inactive: -0.002	inactive: -0.058
NIPA2 (UniProt Q8N8Q9)	inactive: 0.041	inactive: -0.029	inactive: -0.044	inactive: -0.162	inactive: -0.008	inactive: 0.157	inactive: -0.15	inactive: 0.035	inactive: 0.229	inactive: 0.072	inactive: 0.034	inactive: -0.092	inactive: 0.024	inactive: 0.109	inactive: -0.24	inactive: -0.053	inactive: -0.019	inactive: 0.005	inactive: -0.065	inactive: 0.05
NEMF (UniProt O60524)	inactive: -0.006	inactive: -0.046	inactive: -0.028	inactive: 0.035	inactive: 0.001	inactive: -0.018	inactive: -0.012	inactive: 0.001	inactive: -0.01	inactive: 0.042	inactive: -0.001	inactive: -0.003	inactive: -0.006	inactive: -0.032	inactive: 0.011	inactive: -0.026	inactive: 0.008	inactive: 0.021	inactive: -0.018	inactive: -0.021
NDUFA11 (UniProt Q86Y39)	inactive: 0.029	inactive: -0.043	inactive: -0.009	inactive: -0.06	inactive: 0.02	inactive: 0.094	inactive: 0.013	inactive: -0.001	inactive: 0.055	inactive: 0.033	inactive: 0.092	inactive: -0.027	inactive: 0.02	inactive: 0.013	inactive: -0.019	inactive: 0.032	inactive: -0.011	inactive: 0	inactive: -0.047	inactive: 0.054
NDUFB6 (UniProt O95139)	inactive: -0.014	inactive: -0.057	inactive: -0.047	inactive: -0.13	inactive: -0.026	inactive: 0.086	inactive: -0.035	inactive: -0.029	inactive: 0.048	inactive: 0.059	inactive: -0.004	inactive: 0.009	inactive: 0.074	inactive: 0.004	inactive: -0.049	inactive: -0.066	inactive: -0.04	inactive: -0.01	inactive: -0.009	inactive: 0.009
NGRN (UniProt Q9NPE2)	inactive: -0.024	inactive: -0.029	inactive: 0.019	inactive: -0.045	inactive: 0.111	inactive: -0.002	inactive: 0.044	inactive: -0.03	inactive: 0.018	inactive: -0.042	inactive: -0.001	inactive: 0.013	inactive: -0.019	inactive: 0.028	inactive: 0.031	inactive: -0.031	inactive: 0.013	inactive: -0.013	inactive: 0.058	inactive: -0.042
NDUFS4 (UniProt O43181)	inactive: -0.012	inactive: -0.068	inactive: -0.013	inactive: -0.042	inactive: -0.014	inactive: 0.044	inactive: -0.025	inactive: 0.014	inactive: -0.021	inactive: 0.024	inactive: 0.017	inactive: 0.044	inactive: 0.019	inactive: 0.038	inactive: 0.023	inactive: -0.04	inactive: -0.006	inactive: -0.022	inactive: 0.019	inactive: 0.012
NGLY1 (UniProt Q96IV0)	inactive: -0.017	inactive: -0.002	inactive: -0.058	inactive: 0.038	inactive: -0.001	inactive: -0.053	inactive: -0.025	inactive: -0.013	inactive: -0.048	inactive: 0.04	inactive: -0.004	inactive: 0.02	inactive: -0.038	inactive: 0.008	inactive: 0.042	inactive: -0.104	inactive: -0.016	inactive: 0.041	inactive: -0.005	inactive: -0.03
NDUFAF6 (UniProt Q330K2)	inactive: 0.007	inactive: -0.018	inactive: -0.363	inactive: 0.017	inactive: 0.229	inactive: -0.203	inactive: 0.354	inactive: 0.067	inactive: -0.08	inactive: 0.057	inactive: 0.023	inactive: -0.055	inactive: -0.203	inactive: -0.075	inactive: 0.209	inactive: -0.097	inactive: -0.067	inactive: 0.107	inactive: -0.02	inactive: -0.052
NFKBIB (UniProt Q15653)	inactive: 0.093	inactive: -0.011	inactive: -0.055	active: -0.36	inactive: 0.004	inactive: 0.095	inactive: -0.024	inactive: 0.024	inactive: -0.049	inactive: 0.127	inactive: -0.004	inactive: -0.015	inactive: -0.042	inactive: 0.052	inactive: 0.043	inactive: -0.062	inactive: 0.059	inactive: 0.025	inactive: 0.004	inactive: -0.08
NFYB (UniProt P25208)	inactive: 0.06	inactive: 0.008	inactive: 0.021	inactive: 0.054	inactive: -0.002	inactive: 0.09	inactive: 0.05	inactive: 0.009	inactive: 0.072	inactive: -0.092	inactive: -0.024	inactive: 0.037	inactive: 0.047	inactive: 0.036	inactive: 0.016	inactive: -0.024	inactive: -0.005	inactive: -0.025	inactive: 0.077	inactive: -0.063
NDUFS6 (UniProt O75380)	inactive: 0.001	inactive: -0.022	inactive: 0.053	inactive: 0.002	inactive: -0.015	inactive: 0.019	inactive: 0.021	inactive: 0.023	inactive: 0.064	inactive: -0.032	inactive: 0.049	inactive: 0.023	inactive: -0.005	inactive: -0.022	inactive: -0.008	inactive: 0.023	inactive: 0.001	inactive: -0.011	inactive: 0.007	inactive: 0.035

Part of the list above, reformatted.
Target | log2 fold change (lapatinib) | log2 fold change (pictilisib) | log2 fold change (crizotinib) | log2 fold change [1] | log2 fold change (duvelisib) | log2 fold change (gandotinib) | log2 fold change (tozasertib) | log2 fold change (doramapimod) | log2 fold change (bafetinib) | log2 fold change [2] | log2 fold change (nilotinib) | log2 fold change [3] | log2 fold change (dasatinib) | log2 fold change [4] | log2 fold change [5] | log2 fold change (quisinostat) | log2 fold change (tipifarnib) | log2 fold change [6] | log2 fold change [7] | log2 fold change [8]
NEK3 (UniProt P51956) | inactive: -0.014 | inactive: -0.048 | inactive: -0.021 | inactive: 0.012 | inactive: 0.004 | inactive: 0.113 | inactive: 0.051 | inactive: -0.014 | inactive: 0.076 | inactive: 0.002 | inactive: -0.093 | inactive: 0.014 | inactive: -0.003 | inactive: 0.023 | inactive: -0.048 | inactive: -0.073 | inactive: 0.007 | inactive: 0.015 | inactive: -0.094 | inactive: -0.056
NENF (UniProt Q9UMX5) | inactive: -0.028 | inactive: -0.001 | inactive: 0.026 | inactive: 0.046 | inactive: 0.05 | inactive: -0.046 | inactive: 0.004 | inactive: 0.011 | inactive: 0.03 | inactive: -0.034 | inactive: -0.051 | inactive: 0.032 | inactive: -0.001 | inactive: -0.023 | inactive: -0.036 | inactive: -0.078 | inactive: 0.001 | inactive: -0.007 | inactive: -0.013 | inactive: 0.011

Source: the supplement of paper PMC10849652
